According to the supplement of paper PMC10849652:
The list shows a part of the results.

Sequences of proteins named here, by UniProt entry; tags and fusion partners are left off. A change or cut given only in a name is not applied to a line headed by its entry.
UniProt Q502W6: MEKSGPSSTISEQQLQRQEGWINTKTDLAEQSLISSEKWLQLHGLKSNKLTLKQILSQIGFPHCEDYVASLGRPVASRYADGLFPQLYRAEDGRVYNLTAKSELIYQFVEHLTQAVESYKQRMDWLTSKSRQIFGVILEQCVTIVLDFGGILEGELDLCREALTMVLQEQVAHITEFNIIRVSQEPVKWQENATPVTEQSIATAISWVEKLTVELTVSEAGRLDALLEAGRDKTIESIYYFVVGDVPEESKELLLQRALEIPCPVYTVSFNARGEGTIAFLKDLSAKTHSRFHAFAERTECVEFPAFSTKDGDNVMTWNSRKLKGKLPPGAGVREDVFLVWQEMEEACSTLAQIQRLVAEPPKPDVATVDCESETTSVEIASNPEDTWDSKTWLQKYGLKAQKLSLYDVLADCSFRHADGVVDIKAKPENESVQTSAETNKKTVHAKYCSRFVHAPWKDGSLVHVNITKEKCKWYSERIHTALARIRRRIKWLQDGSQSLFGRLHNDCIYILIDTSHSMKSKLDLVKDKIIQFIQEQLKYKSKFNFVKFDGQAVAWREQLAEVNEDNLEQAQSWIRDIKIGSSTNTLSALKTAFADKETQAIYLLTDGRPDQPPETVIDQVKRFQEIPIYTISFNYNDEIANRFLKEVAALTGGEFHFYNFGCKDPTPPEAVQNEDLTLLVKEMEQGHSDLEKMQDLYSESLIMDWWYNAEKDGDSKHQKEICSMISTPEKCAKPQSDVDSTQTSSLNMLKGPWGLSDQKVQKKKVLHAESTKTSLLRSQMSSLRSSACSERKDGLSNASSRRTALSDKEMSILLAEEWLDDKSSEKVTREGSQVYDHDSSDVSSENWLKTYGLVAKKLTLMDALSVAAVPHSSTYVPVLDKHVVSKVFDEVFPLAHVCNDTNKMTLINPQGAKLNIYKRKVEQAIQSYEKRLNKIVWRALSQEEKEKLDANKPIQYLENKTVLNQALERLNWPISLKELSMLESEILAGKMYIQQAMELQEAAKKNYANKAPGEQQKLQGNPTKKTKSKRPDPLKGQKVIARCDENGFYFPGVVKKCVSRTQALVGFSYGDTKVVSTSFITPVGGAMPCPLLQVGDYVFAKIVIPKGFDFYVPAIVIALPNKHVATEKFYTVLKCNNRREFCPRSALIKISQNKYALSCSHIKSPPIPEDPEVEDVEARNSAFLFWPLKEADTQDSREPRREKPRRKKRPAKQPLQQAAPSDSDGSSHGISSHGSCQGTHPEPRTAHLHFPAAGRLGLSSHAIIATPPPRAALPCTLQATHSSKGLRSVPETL
UniProt O00308: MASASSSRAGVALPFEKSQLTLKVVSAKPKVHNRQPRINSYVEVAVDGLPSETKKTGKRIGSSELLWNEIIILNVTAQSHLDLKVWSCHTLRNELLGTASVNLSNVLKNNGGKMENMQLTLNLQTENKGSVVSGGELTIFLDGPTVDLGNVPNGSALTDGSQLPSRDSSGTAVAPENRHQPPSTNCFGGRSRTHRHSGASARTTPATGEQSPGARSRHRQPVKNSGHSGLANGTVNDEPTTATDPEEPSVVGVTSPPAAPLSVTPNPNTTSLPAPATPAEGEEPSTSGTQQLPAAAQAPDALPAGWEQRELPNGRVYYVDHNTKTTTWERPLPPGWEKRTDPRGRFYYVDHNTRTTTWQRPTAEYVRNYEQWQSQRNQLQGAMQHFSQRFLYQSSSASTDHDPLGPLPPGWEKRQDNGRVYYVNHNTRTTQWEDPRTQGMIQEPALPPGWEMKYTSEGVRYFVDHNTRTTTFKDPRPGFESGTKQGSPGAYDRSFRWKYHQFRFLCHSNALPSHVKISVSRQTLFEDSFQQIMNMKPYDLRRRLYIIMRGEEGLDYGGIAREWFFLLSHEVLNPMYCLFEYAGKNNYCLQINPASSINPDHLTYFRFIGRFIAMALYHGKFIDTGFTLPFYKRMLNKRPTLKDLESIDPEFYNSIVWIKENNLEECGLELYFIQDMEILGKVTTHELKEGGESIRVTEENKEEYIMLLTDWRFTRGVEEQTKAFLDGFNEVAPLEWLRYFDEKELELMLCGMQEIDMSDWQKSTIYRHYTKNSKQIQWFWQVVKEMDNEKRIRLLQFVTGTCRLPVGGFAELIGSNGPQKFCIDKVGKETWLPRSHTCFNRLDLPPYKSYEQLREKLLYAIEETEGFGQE
UniProt Q96AX1: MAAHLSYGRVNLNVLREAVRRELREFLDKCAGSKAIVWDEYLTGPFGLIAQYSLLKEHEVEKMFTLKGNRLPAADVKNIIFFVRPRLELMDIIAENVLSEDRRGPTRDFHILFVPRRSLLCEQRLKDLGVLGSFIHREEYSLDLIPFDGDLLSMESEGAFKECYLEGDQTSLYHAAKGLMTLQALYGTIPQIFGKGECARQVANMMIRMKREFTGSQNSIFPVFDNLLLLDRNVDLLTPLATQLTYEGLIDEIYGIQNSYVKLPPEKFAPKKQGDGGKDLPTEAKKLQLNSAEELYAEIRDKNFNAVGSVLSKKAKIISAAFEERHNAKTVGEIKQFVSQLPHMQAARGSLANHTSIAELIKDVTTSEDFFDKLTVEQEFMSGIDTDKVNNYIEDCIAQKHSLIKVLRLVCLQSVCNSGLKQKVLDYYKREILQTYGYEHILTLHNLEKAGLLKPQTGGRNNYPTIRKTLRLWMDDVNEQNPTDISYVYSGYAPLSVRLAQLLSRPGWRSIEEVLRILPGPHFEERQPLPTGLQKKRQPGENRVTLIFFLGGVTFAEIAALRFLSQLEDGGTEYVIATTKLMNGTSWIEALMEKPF
UniProt O75554: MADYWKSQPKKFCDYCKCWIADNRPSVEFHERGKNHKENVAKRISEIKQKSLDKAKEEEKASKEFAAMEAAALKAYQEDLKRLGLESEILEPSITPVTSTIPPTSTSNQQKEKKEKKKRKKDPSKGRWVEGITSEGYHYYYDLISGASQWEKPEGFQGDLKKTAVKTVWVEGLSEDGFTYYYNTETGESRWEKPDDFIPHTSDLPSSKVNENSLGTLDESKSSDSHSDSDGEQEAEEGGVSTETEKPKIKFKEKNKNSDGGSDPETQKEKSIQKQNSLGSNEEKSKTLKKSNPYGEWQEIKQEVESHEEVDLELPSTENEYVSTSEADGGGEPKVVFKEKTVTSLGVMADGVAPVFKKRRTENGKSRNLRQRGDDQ
UniProt P23381: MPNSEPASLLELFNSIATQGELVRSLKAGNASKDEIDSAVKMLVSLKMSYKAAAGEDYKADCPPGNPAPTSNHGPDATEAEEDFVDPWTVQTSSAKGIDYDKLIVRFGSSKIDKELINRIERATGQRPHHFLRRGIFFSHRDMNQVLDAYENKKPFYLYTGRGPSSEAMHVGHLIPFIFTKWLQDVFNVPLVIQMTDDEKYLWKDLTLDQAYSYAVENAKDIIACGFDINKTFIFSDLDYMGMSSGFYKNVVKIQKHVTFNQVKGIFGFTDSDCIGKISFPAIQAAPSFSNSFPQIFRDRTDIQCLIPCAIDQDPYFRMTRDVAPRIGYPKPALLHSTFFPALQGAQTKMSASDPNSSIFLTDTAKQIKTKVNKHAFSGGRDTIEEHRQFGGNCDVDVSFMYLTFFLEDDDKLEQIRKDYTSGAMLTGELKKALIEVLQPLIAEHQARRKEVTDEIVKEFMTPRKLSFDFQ
UniProt Q9NNW5: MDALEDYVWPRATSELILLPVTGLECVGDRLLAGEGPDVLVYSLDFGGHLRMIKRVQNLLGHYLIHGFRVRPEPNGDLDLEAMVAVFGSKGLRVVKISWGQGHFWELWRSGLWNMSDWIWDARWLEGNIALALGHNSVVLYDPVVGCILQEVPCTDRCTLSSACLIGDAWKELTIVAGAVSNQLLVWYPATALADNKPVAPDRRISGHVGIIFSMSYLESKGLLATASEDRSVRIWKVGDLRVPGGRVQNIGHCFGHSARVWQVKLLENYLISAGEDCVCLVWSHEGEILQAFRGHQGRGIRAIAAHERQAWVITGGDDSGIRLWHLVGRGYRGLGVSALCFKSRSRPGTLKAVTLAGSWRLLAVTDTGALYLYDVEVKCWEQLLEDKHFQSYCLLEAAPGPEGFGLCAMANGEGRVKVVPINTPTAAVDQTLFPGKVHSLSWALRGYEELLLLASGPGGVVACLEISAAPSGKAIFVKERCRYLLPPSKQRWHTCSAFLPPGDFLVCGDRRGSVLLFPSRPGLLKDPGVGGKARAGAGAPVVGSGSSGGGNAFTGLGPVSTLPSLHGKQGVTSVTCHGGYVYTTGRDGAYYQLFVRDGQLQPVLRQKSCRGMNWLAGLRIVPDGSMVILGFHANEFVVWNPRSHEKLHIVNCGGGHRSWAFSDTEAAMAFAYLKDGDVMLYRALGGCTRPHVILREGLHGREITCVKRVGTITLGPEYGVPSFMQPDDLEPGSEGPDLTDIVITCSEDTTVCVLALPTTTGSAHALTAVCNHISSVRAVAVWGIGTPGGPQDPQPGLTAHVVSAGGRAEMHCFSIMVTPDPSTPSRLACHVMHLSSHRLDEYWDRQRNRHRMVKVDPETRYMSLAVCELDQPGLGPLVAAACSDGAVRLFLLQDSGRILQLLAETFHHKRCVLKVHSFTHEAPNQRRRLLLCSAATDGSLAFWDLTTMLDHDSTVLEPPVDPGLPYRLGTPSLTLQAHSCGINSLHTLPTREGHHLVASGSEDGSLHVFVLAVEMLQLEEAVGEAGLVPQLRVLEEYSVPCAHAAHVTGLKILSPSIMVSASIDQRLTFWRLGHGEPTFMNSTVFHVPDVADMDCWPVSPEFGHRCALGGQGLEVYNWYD
UniProt Q9UEU0: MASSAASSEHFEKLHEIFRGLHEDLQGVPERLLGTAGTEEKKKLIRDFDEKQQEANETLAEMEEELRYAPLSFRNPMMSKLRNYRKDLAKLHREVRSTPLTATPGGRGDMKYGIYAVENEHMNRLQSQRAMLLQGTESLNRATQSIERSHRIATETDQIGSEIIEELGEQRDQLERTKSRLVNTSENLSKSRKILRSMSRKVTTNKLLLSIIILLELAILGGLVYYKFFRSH
UniProt Q969T9: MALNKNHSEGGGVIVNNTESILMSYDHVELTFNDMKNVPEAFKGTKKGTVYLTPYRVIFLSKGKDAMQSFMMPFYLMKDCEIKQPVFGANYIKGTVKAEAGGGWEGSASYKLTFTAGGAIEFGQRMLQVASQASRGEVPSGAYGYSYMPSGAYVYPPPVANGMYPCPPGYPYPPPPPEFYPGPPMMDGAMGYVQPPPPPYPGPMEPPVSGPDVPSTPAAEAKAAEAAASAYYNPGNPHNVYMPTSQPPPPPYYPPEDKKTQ
UniProt Q8IWA0: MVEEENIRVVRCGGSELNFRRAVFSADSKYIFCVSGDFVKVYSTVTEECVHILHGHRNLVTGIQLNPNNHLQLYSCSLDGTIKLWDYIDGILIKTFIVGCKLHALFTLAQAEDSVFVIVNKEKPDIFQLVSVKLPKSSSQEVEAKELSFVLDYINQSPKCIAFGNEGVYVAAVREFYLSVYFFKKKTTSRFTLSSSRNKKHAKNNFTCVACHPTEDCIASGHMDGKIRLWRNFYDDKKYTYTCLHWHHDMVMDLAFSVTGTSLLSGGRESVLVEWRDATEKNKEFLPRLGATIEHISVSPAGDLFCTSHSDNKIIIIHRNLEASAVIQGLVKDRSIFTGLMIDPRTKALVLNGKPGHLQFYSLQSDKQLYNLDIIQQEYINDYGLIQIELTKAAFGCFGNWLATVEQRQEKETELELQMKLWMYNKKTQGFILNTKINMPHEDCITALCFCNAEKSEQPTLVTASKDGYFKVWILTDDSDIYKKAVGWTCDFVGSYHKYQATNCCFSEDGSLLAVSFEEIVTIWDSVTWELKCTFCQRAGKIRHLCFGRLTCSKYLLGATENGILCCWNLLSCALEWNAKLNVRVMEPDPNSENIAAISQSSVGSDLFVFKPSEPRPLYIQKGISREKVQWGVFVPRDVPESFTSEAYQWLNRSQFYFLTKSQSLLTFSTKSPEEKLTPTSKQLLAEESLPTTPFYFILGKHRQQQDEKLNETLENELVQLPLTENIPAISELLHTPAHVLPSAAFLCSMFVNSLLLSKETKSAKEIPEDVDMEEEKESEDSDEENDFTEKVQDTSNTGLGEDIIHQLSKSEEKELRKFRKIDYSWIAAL
UniProt Q5MNZ6: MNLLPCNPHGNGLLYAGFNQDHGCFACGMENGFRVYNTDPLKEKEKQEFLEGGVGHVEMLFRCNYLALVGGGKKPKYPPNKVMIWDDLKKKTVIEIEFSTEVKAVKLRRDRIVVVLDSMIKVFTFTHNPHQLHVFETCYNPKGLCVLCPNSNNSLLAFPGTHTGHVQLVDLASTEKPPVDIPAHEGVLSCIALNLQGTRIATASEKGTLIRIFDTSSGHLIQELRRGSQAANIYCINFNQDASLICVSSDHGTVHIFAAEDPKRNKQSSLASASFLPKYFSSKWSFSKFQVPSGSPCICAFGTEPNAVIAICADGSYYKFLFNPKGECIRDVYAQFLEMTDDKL

Experiments:
Assay in all cases: log2 fold change, soluble protein after heating vs DMSO (PISA); higher = thermal stabilisation; K562 lysate, 10 uM; active = over 0.2 and 3.5 SD of the protein, either way, in both replicates (recomputed)
[1] = compound: CS(=O)(=O)CCNCc1ccc(-c2ccc3ncnc(Nc4ccc(OCc5cccc(F)c5)c(Cl)c4)c3c2)o1 [lapatinib]
How it was run: (§1)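 K562 pellets were dounce-homogenised in PBS pH 7.4 containing 1 mM MgCl2, and the crude extract, at 1 mg/mL protein, was exposed to 10 μM compound for 30 min. Aliquots were heated for 3 min across 48°C-58°C, pooled, brought to 0.5% NP-40 at 4°C and spun at 21,000xg for 90 min, with the supernatant taken as soluble protein. TMTpro 16plex LC-MS/MS with equalised channel sums quantified that protein. Values are log-two fold changes in thermal stability relative to solvent controls, taken from duplicates.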

[2] = compound: CS(=O)(=O)N1CCN(Cc2cc3nc(-c4cccc5[nH]ncc45)nc(N4CCOCC4)c3s2)CC1 [pictilisib]
How it was run: as §1

[3] = compound: C[C@@H](Oc1cc(-c2cnn(C3CCNCC3)c2)cnc1N)c1c(Cl)ccc(F)c1Cl [crizotinib]
How it was run: as §1

[4] = compound: C[C@H](C1=CC=C(C=C1)C(=O)NC2=C3C=CNC3=NC=C2)N
How it was run: as §1

[5] = compound: C[C@H](Nc1ncnc2nc[nH]c12)c1cc2cccc(Cl)c2c(=O)n1-c1ccccc1 [duvelisib]
How it was run: as §1

[6] = compound: Cc1cc(Nc2cc(CN3CCOCC3)c3nc(C)c(Cc4ccc(Cl)cc4F)n3n2)n[nH]1 [gandotinib]
How it was run: as §1

[7] = compound: Cc1cc(Nc2cc(N3CCN(C)CC3)nc(Sc3ccc(NC(=O)C4CC4)cc3)n2)n[nH]1 [tozasertib]
How it was run: as §1

[8] = compound: Cc1ccc(-n2nc(C(C)(C)C)cc2NC(=O)Nc2ccc(OCCN3CCOCC3)c3ccccc23)cc1 [doramapimod]
How it was run: as §1

[9] = compound: Cc1ccc(NC(=O)c2ccc(CN3CC[C@H](N(C)C)C3)c(C(F)(F)F)c2)cc1Nc1nccc(-c2cncnc2)n1 [bafetinib]
How it was run: as §1

[10] = compound: Cc1cccc(CC(=O)N2CCc3c2ccc(-c2cn(C)c4ncnc(N)c24)c3F)n1
How it was run: as §1

[11] = compound: Cc1cn(-c2cc(NC(=O)c3ccc(C)c(Nc4nccc(-c5cccnc5)n4)c3)cc(C(F)(F)F)c2)cn1 [nilotinib]
How it was run: as §1

[12] = compound: Cc1nc(Nc2n[nH]c3c2CN(C(=O)N[C@H](CN(C)C)c2ccccc2)C3(C)C)c2sccc2n1
How it was run: as §1

[13] = compound: Cc1nc(Nc2ncc(C(=O)Nc3c(C)cccc3Cl)s2)cc(N2CCN(CCO)CC2)n1 [dasatinib]
How it was run: as §1

[14] = compound: Cc1ncc(-c2ccnc(Nc3ccc(S(C)(=O)=O)cc3)n2)n1C(C)C
How it was run: as §1

[15] = compound: Cn1cc(-c2ccc3c(c2)CCN3C(=O)Cc2cccc(C(F)(F)F)c2)c2c(N)ncnc21
How it was run: as §1

[16] = compound: Cn1cc(CNCC2CCN(c3ncc(C(=O)NO)cn3)CC2)c2ccccc21 [quisinostat]
How it was run: as §1

[17] = compound: Cn1cncc1[C@@](N)(c1ccc(Cl)cc1)c1ccc2c(c1)c(-c1cccc(Cl)c1)cc(=O)n2C [tipifarnib]
How it was run: as §1

[18] = compound: NC(=O)Nc1cc(-c2cccc(F)c2)sc1C(=O)N[C@H]1CCCNC1
How it was run: as §1

[19] = compound: NC(=O)c1cnc(N[C@@H]2CCCC[C@@H]2N)nc1Nc1cccc(-n2nccn2)c1
How it was run: as §1

[20] = compound: NC1(c2ccc(-c3nc4ccn5c(=O)[nH]nc5c4cc3-c3ccccc3)cc2)CCC1
How it was run: as §1

Measured: log2 fold change

VWA3B isoform 6 (UniProt Q502W6)
inactive: [1] -0.083 | [2] -0.134 | [3] 0.057 | [4] -0.312 | [5] 0.109 | [6] 0.086 | [7] 0.042 | [8] 0.021 | [9] -0.25 | [10] 0.287 | [11] -0.025 | [12] -0.031 | [13] -0.15 | [14] 0.009 | [15] 0.03 | [16] 0.117 | [17] 0.026 | [18] -0.002 | [19] -0.064 | [20] -0.045

WWP2 (UniProt O00308)
inactive: [1] -0.052 | [2] 0.044 | [3] -0.035 | [4] -0.093 | [5] -0.073 | [6] -0.001 | [7] -0.114 | [8] 0.075 | [9] 0.004 | [10] 0.084 | [11] 0.043 | [12] -0.107 | [13] -0.143 | [14] 0.013 | [15] 0.155 | [16] 0.081 | [17] 0.032 | [18] -0.025 | [19] -0.052 | [20] -0.042

VPS33A (UniProt Q96AX1)
inactive: [1] 0 | [2] -0.005 | [3] -0.025 | [4] -0.03 | [5] 0.039 | [6] -0.043 | [7] 0.01 | [8] 0 | [9] 0.014 | [10] 0.036 | [11] -0.007 | [12] -0.004 | [13] -0.007 | [14] -0.027 | [15] 0.045 | [16] -0.018 | [17] -0.006 | [18] 0.041 | [19] 0.021 | [20] -0.034

WASHC2A (UniProt Q641Q2)
inactive: [1] 0.013 | [2] 0.005 | [3] 0.004 | [4] -0.022 | [5] -0.013 | [6] 0.026 | [7] 0.016 | [8] -0.009 | [9] -0.013 | [10] -0.001 | [11] 0.021 | [12] 0.003 | [13] 0.003 | [14] 0.03 | [15] 0.003 | [16] 0.005 | [17] -0.003 | [18] 0.001 | [19] -0.004 | [20] -0.013

VPS16 (UniProt Q9H269)
inactive: [1] -0.014 | [2] 0.005 | [3] -0.08 | [4] -0.019 | [5] 0.013 | [6] -0.024 | [7] 0.004 | [8] -0.013 | [9] -0.051 | [10] 0.03 | [11] 0 | [12] 0.011 | [13] -0.013 | [14] 0.014 | [15] 0.021 | [16] -0.095 | [17] -0.012 | [18] 0.022 | [19] 0.004 | [20] 0.009

WBP4 (UniProt O75554)
inactive: [1] 0.018 | [2] 0.004 | [3] -0.004 | [4] -0.021 | [5] 0.069 | [6] 0.041 | [7] -0.011 | [8] -0.009 | [9] 0.023 | [10] 0.042 | [11] 0.009 | [12] -0.013 | [13] 0.058 | [14] 0.027 | [15] 0.058 | [16] -0.037 | [17] 0 | [18] 0.016 | [19] -0.04 | [20] 0.025

WARS (UniProt P23381)
inactive: [1] 0.012 | [2] 0.02 | [3] 0.02 | [4] 0.122 | [5] -0.006 | [6] -0.025 | [7] -0.051 | [8] -0.065 | [9] 0.287 | [10] -0.111 | [11] 0.012 | [12] -0.013 | [13] 0.044 | [14] 0.016 | [15] -0.03 | [16] 0.029 | [17] 0.054 | [18] -0.003 | [19] -0.043 | [20] 0.026

WDR70 (UniProt Q9NW82)
inactive: [1] 0.021 | [2] 0.004 | [3] 0.008 | [4] 0.032 | [5] 0.003 | [6] 0.052 | [7] -0.01 | [8] 0.001 | [9] -0.005 | [10] -0.067 | [11] 0.005 | [12] -0.008 | [13] 0.004 | [14] -0.027 | [15] 0.027 | [16] 0.013 | [17] -0.007 | [18] -0.045 | [19] -0.03 | [20] 0.034

VPS39 (UniProt Q96JC1)
inactive: [1] -0.018 | [2] -0.018 | [3] -0.066 | [5] 0.015 | [6] -0.169 | [7] 0.021 | [8] 0.015 | [9] -0.045 | [10] -0.229 | [11] 0.03 | [12] -0.008 | [13] -0.044 | [14] 0.024 | [15] -0.003 | [16] -0.046 | [17] 0.002 | [18] 0.005 | [19] -0.008 | [20] -0.003
active: [4] 0.603

WDR6 (UniProt Q9NNW5)
inactive: [1] -0.023 | [2] -0.03 | [3] -0.049 | [4] -0.05 | [5] -0.005 | [6] -0.007 | [7] -0.013 | [8] -0.007 | [9] -0.022 | [10] 0.024 | [11] -0.017 | [12] 0.002 | [13] -0.018 | [14] -0.003 | [15] 0.026 | [16] -0.075 | [17] 0.036 | [18] 0.033 | [19] 0.006 | [20] -0.032

WDCP (UniProt Q9H6R7)
inactive: [1] -0.048 | [2] 0.017 | [3] -0.079 | [4] 0.022 | [5] 0.038 | [6] -0.058 | [7] -0.03 | [8] -0.02 | [9] -0.027 | [10] 0.002 | [11] -0.01 | [12] 0.001 | [13] -0.035 | [14] 0.006 | [15] -0.018 | [16] -0.107 | [17] 0.009 | [18] 0.014 | [19] -0.069 | [20] 0.007

Copied from the entries so far (two entries):
WWP2 (UniProt O00308)
inactive: [1] -0.052 | [2] 0.044 | [3] -0.035 | [4] -0.093 | [5] -0.073 | [6] -0.001 | [7] -0.114 | [8] 0.075 | [9] 0.004 | [10] 0.084 | [11] 0.043 | [12] -0.107 | [13] -0.143 | [14] 0.013 | [15] 0.155 | [16] 0.081 | [17] 0.032 | [18] -0.025 | [19] -0.052 | [20] -0.042

VPS33A (UniProt Q96AX1)
inactive: [1] 0 | [2] -0.005 | [3] -0.025 | [4] -0.03 | [5] 0.039 | [6] -0.043 | [7] 0.01 | [8] 0 | [9] 0.014 | [10] 0.036 | [11] -0.007 | [12] -0.004 | [13] -0.007 | [14] -0.027 | [15] 0.045 | [16] -0.018 | [17] -0.006 | [18] 0.041 | [19] 0.021 | [20] -0.034

Remaining list, next part.

XIAP (UniProt P98170)
inactive: [1] 0.023 | [2] -0.019 | [3] -0.03 | [4] -0.062 | [5] 0.005 | [6] 0.03 | [7] 0.006 | [8] 0.046 | [9] -0.011 | [10] 0.102 | [11] 0.003 | [12] 0.011 | [13] 0.116 | [14] 0.012 | [15] -0.003 | [16] -0.049 | [17] -0.021 | [18] 0 | [19] 0.015 | [20] -0.004

VTI1B (UniProt Q9UEU0)
inactive: [1] 0.034 | [2] -0.017 | [3] 0.034 | [4] -0.04 | [5] -0.044 | [6] -0.003 | [7] -0.018 | [8] 0.041 | [9] -0.019 | [10] 0.037 | [11] -0.038 | [12] 0.084 | [13] 0.026 | [14] -0.043 | [15] 0.029 | [16] 0.052 | [17] -0.041 | [18] -0.049 | [19] -0.021 | [20] -0.002

WBP2 (UniProt Q969T9)
inactive: [1] 0.017 | [2] 0.03 | [3] 0.071 | [4] 0.121 | [5] 0.02 | [6] -0.047 | [7] 0.008 | [8] -0.023 | [9] 0.055 | [10] -0.113 | [11] 0.021 | [12] 0.03 | [13] 0.056 | [14] -0.012 | [15] -0.015 | [16] 0.085 | [17] 0.042 | [18] -0.025 | [19] -0.015 | [20] -0.025

WDR75 (UniProt Q8IWA0)
inactive: [1] -0.001 | [2] -0.036 | [3] -0.131 | [4] -0.073 | [5] 0.009 | [6] 0.069 | [7] 0.001 | [8] -0.03 | [9] -0.052 | [10] -0.027 | [11] 0.034 | [12] 0.012 | [13] 0.014 | [14] -0.029 | [15] 0.046 | [16] -0.151 | [17] -0.136 | [18] 0.05 | [19] 0.022 | [20] -0.015

WDR45B (UniProt Q5MNZ6)
inactive: [1] -0.007 | [2] -0.014 | [3] 0.006 | [4] -0.036 | [5] 0.035 | [6] 0.037 | [7] -0.054 | [8] -0.04 | [9] 0.028 | [10] 0.03 | [11] 0 | [12] 0.012 | [13] 0.071 | [14] -0.021 | [15] -0.006 | [16] 0.008 | [17] -0.026 | [18] -0.013 | [19] -0.013 | [20] 0.046
